PubChem BioAssay AID504791 – Drosophila RNAi Screening Center, 2011
The screen tested about 23,000 reagents; below is an unselected part of those with a known target gene and a result. Over the whole deposit, 199 (0.86%) were called active. 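Plate-scaled ratios behind the calls are not deposited; printed light signals are raw; many rows marked increased or decreased are still called inactive.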 A plus sign joins genes that one reagent is predicted to hit. The record does not give: the direction of the score.

Aim: 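Genes of the fly required for silencing by miRNA, siRNA or endo-siRNA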 (primary screen)
Cell system: Drosophila S2-derived reporter cells
Reagents: long dsRNA against Drosophila genes, about 150-250 ng dsRNA per well (siRNA assay); about 80-120 ng (miRNA assay)
Time to read-out: about 5 days (siRNA assay); about 4 days (miRNA assay)
Conditions: copper sulfate induction of reporters: 25 µM (siRNA assay); 200 mM stated (miRNA assay), 1-2 days before reading
Detection: 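Dual luciferase assay: Renilla to firefly signal ratio in each well, scaled to the mean ratio of its plate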
Rule for the call: 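First-pass picks had plate-scaled ratios over 1.5 for the siRNA assay, over 1.6 for the miRNA assay, or under 0.6; two distinct dsRNAs had to score alike on retest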

The first 5 entries, to show the layout:
| gene | dsRNA | stable siRNA reporter change | miRNA reporter change | stable assay Renilla, run 1 (luminescence) | stable assay firefly, run 1 (luminescence) | Call |
| --- | --- | --- | --- | --- | --- | --- |
| Rbcn-3B | DRSC18574 | – | – | 6432 | 3.25e5 | inactive |
| CG12460 (retired record) | DRSC20970 | – | – | 6411 | 4.97e5 | inactive |
| Rcc1 | DRSC09684 | – | – | 10010 | 4.06e5 | inactive |
| Ice2 | DRSC14268 | – | – | 11039 | 4.04e5 | inactive |
| Nox | DRSC06596 | – | – | 6688 | 3.58e5 | inactive |

The list itself, from the first entry:
| gene | dsRNA | stable siRNA reporter change | miRNA reporter change | stable assay Renilla, run 1 (luminescence) | stable assay firefly, run 1 (luminescence) | Call |
| --- | --- | --- | --- | --- | --- | --- |
| Rbcn-3B | DRSC18574 | – | – | 6432 | 3.25e5 | inactive |
| CG12460 (retired record) | DRSC20970 | – | – | 6411 | 4.97e5 | inactive |
| Rcc1 | DRSC09684 | – | – | 10010 | 4.06e5 | inactive |
| Ice2 | DRSC14268 | – | – | 11039 | 4.04e5 | inactive |
| Nox | DRSC06596 | – | – | 6688 | 3.58e5 | inactive |
| Nox | DRSC06857 | – | – | 5534 | 2.69e5 | inactive |
| CG8929 | DRSC07298 | – | – | 9340 | 3.65e5 | inactive |
| CG8929 | DRSC22847 | – | – | 4780 | 4.63e5 | inactive |
| CG17770 + Acam | DRSC14110 | – | – | 7999 | 3.61e5 | inactive |
| CG17770 + Acam | DRSC15264 | – | – | 6664 | 3.30e5 | inactive |
| CG9663 | DRSC00724 | – | – | 26102 | 2.96e5 | inactive |
| CG3199 | DRSC15467 | – | – | 6835 | 5.68e5 | inactive |
| LPCAT | DRSC18157 | – | – | 4071 | 3.53e5 | inactive |
| LPCAT | DRSC18257 | – | – | 6590 | 5.42e5 | inactive |
| Girdin | DRSC08292 | – | – | 5795 | 3.57e5 | inactive |
| Prx6a | DRSC00565 | – | – | 14313 | 4.16e5 | inactive |
| sisA | DRSC20374 | – | – | 5090 | 3.81e5 | inactive |
| CG16957 | DRSC02545 | – | – | 7654 | 3.83e5 | inactive |
| SPARC | DRSC14123 | – | – | 5750 | 4.32e5 | inactive |
| pcs | DRSC07042 | – | – | 7972 | 4.64e5 | inactive |
| Deaf1 | DRSC11143 | – | – | 5943 | 3.58e5 | inactive |
| Deaf1 | DRSC22786 | reporter ratio raised past the hit cutoff | reporter ratio raised past the hit cutoff | 4955 | 2.89e5 | active |
| Socs36E | DRSC02455 | – | – | 6518 | 1.31e6 | inactive |
| bnl | DRSC13377 | – | – | 4495 | 3.31e5 | inactive |
| bnl | DRSC16913 | – | – | 7710 | 2.84e5 | inactive |
| bnl | DRSC23212 | – | – | 4023 | 3.11e5 | inactive |
| ND-B14.5AL | DRSC11795 | – | – | 8199 | 4.44e5 | inactive |
| e(y)2 | DRSC19640 | – | – | 7159 | 6.19e5 | inactive |
| CG15870 | DRSC06588 | – | – | 5567 | 3.12e5 | inactive |
| Dh31-R | DRSC06647 | – | – | 5894 | 2.63e5 | inactive |
| Dh31-R | DRSC06669 | – | – | 6835 | 4.23e5 | inactive |
| CG31819 | DRSC01532 | – | – | 6327 | 3.48e5 | inactive |
| DMAP1 | DRSC06044 | – | – | 6970 | 3.27e5 | inactive |
| CG10353 | DRSC19354 | – | – | 4591 | 4.07e5 | inactive |
| mthl5 | DRSC16155 | – | – | 8078 | 4.17e5 | inactive |
| CG8757 | DRSC11039 | – | – | 5744 | 3.82e5 | inactive |
| CG11619 | DRSC09849 | – | – | 7384 | 5.08e5 | inactive |
| Bdp1 | DRSC03192 | – | – | 20090 | 1.40e6 | inactive |
| Smvt | DRSC15426 | – | – | 7859 | 5.44e5 | inactive |
| GstD11 | DRSC15251 | – | – | 6292 | 4.05e5 | inactive |
| nito | DRSC05943 | – | reporter ratio lowered past the hit cutoff | 3304 | 2.66e5 | active |
| alpha-Est3 | DRSC12615 | – | – | 7718 | 4.46e5 | inactive |
| CG13403 | DRSC19535 | – | – | 6795 | 4.38e5 | inactive |
| brn | DRSC18746 | – | – | 8936 | 5.84e5 | inactive |
| JhI-21 | DRSC02161 | – | – | 49800 | 5.88e5 | inactive |
| Ube3a | DRSC10600 | – | – | 7128 | 4.35e5 | inactive |
| CG33502 + CG32857 + CG32500 | DRSC20817 | – | – | 5560 | 4.75e5 | inactive |
| CG33502 + CG32857 + CG32500 | DRSC21038 | – | – | 6274 | 4.48e5 | inactive |
| Or33c | DRSC03388 | – | – | 7215 | 4.47e5 | inactive |
| Acf | DRSC14101 | – | – | 7363 | 4.05e5 | inactive |
| Np | DRSC06089 | – | – | 7166 | 4.28e5 | inactive |
| Np | DRSC07094 | – | – | 6426 | 4.49e5 | inactive |
| Np | DRSC22421 | – | – | 3544 | 3.15e5 | inactive |
| Noc2 | DRSC03165 | – | – | 6324 | 1.25e6 | inactive |
| CG3927 | DRSC04433 | – | – | 5408 | 3.34e5 | inactive |
| CG3927 | DRSC22813 | – | – | 4911 | 4.53e5 | inactive |
| TTLL3B | DRSC02133 | – | – | 7935 | 4.08e5 | inactive |
